Laboratory results from PubChem BioAssay AID328 (DTP/NCI, 2004).
The list is a part of this screen's results and no random one: it gathers tests that were run many times, whatever their T/C, doses with no T/C, and many T/C values between a quarter and a half above the control. Further doses and runs are listed elsewhere. T/C: endpoint of the treated group in % of that of the vehicle group. Some doses have a count of surviving animals in place of a T/C: the source holds a T/C of zero for them, seemingly a mark for toxic or unscored doses. Some doses without a T/C left all or most animals alive at the check, yet need not have been tolerated: survival well below the control is almost never listed, so the zero probably covers shortened survival too. Survivors were counted at the toxicity check, usually on the fifth day, unless a day is given; later deaths do not show. Schedules are NCI's codes, read here as Q, the interval in days (D) or hours (H), X, the number of doses. Some structures stand for samples that the source files as different forms (salt, stereo form or complex); doses refer to the form tested. Where survival is the endpoint, this PubChem deposit counts one and a half times the control or more as active, and values a quarter to a half above the control carry no call in these data; other NCI protocols may use other cut-offs. Some T/C values carry the count of animals alive at the toxicity check (mostly the fifth day); without a count, all were alive then.

Test system: BDF1 mice, P388 leukemia ip, median survival T/C
Assay: NCI In Vivo Anticancer Drug Screen. Data for tumor model P388 Leukemia (intraperitoneal) in B6D2F1 (BDF1) mice
Conditions: higher T/C = longer survival
Procedure, shortened: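 Survival ratio, drug arm over vehicle arm, in mice with a transplanted tumour.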

[1] = T/C endpoint: median survival time, dose: 50.0 mg/kg/injection, schedule: Q04DX003 (ip), vehicle: saline with Tween-80
[2] = T/C endpoint: median survival time, dose: 100.0 mg/kg/injection, schedule: Q04DX003 (ip), vehicle: saline with Tween-80
[3] = T/C endpoint: median survival time, dose: 200.0 mg/kg/injection, schedule: Q04DX003 (ip), vehicle: saline with Tween-80
[4] = T/C endpoint: median survival time, dose: 400.0 mg/kg/injection, schedule: Q04DX003 (ip), vehicle: saline with Tween-80
[5] = T/C endpoint: median survival time, dose: 200.0 mg/kg/injection, schedule: Q04DX002 (ip), vehicle: saline with Tween-80
[6] = T/C endpoint: median survival time, dose: 400.0 mg/kg/injection, schedule: Q04DX003 (ip), vehicle: water
[7] = T/C endpoint: median survival time, dose: 200.0 mg/kg/injection, schedule: Q01DX009 (ip), vehicle: saline with Tween-80
[8] = T/C endpoint: median survival time, dose: 400.0 mg/kg/injection, schedule: Q01DX010 (ip), vehicle: saline

## OCCNCCNCC[OH2+].OCCNCCNCC[OH2+].[Cu+2].[O-][Cl+3]([O-])([O-])[O-]
T/C endpoint: median survival time, dose: 50.0 mg/kg/injection, schedule: Q01DX009 (ip), vehicle: other
  survivor count: 0 of 6
T/C endpoint: median survival time, dose: 100.0 mg/kg/injection, schedule: Q01DX009 (ip), vehicle: other
  survivor count: 1 of 6
T/C endpoint: median survival time, dose: 200.0 mg/kg/injection, schedule: Q01DX009 (ip), vehicle: other
  survivor count: 0 of 6

## CCCOC1=C(N2CC2)C(=O)C(OCCC)=C(N2CC2)C1=O
T/C endpoint: median survival time, dose: 3.3 mg/kg/injection, schedule: Q04DX003 (ip), vehicle: saline with Tween-80
  T/C: 126 % of control
T/C endpoint: median survival time, dose: 5.0 mg/kg/injection, schedule: Q04DX003 (ip), vehicle: saline with Tween-80
  T/C: 130 % of control
T/C endpoint: median survival time, dose: 5.55 mg/kg/injection, schedule: Q04DX003 (ip), vehicle: saline with Tween-80
  T/C: 145 % of control
[1]
  survivor count: 4 of 6
[2]
  survivor count: 4 of 6
[3]
  survivor count: 1 of 6
[4]
  survivor count: 0 of 6

## CC1=C(O)C(=O)C(C2=C(O)C(=O)C(C)=C(O)C2=O)=C(O)C1=O
T/C endpoint: median survival time, dose: 2.5 mg/kg/injection, schedule: Q01DX010 (ip), vehicle: saline
  survivor count: 5 of 6
T/C endpoint: median survival time, dose: 5.0 mg/kg/injection, schedule: Q01DX010 (ip), vehicle: saline
  survivor count: 0 of 6

## CCCCCCCC/C=C/CCCCCCCC(=O)NCCCN (tested in a mixture with another compound)
T/C endpoint: median survival time, dose: 100.0 mg/kg/injection, schedule: Q04DX002 (ip), vehicle: saline with Tween-80
  survivor count: 4 of 6
[5]
  survivor count: 2 of 6
T/C endpoint: median survival time, dose: 400.0 mg/kg/injection, schedule: Q04DX002 (ip), vehicle: saline with Tween-80
  survivor count: 0 of 6

## Cc1cc[n+](CCc2ccccc2)cc1
T/C endpoint: median survival time, dose: 100.0 mg/kg/injection, schedule: Q01DX009 (ip), vehicle: saline
  survivor count: 0 of 6
T/C endpoint: median survival time, dose: 150.0 mg/kg/injection, schedule: Q01DX010 (ip), vehicle: acetone
  survivor count: 0 of 6

## Clc1nc2nc(C(Cl)(Cl)Cl)[nH]c2nc1Cl
T/C endpoint: median survival time, dose: 255.0 mg/kg/injection, schedule: Q04DX003 (ip), vehicle: Klucel (hydroxypropylcellulose) (HPC)
  survivor count: 2 of 6
T/C endpoint: median survival time, dose: 385.0 mg/kg/injection, schedule: Q04DX003 (ip), vehicle: Klucel (hydroxypropylcellulose) (HPC)
  survivor count: 0 of 6

## Cn1c(=O)c2c(nc(CCCCc3nc4c(c(=O)n(C)c(=O)n4C)n3C)n2C)n(C)c1=O
T/C endpoint: median survival time, dose: 400.0 mg/kg/injection, schedule: Q01DX009 (ip), vehicle: saline with Tween-80
  survivor count: 6 of 6

## CCN1C(=O)CC(=O)N(CC)C1=S
T/C endpoint: median survival time, dose: 400.0 mg/kg/injection, schedule: Q04DX003 (ip), vehicle: Klucel (hydroxypropylcellulose) (HPC)
  survivor count: 3 of 3

## O=C(c1ccccc1)C1CCCCC1
T/C endpoint: median survival time, dose: 100.0 mg/kg/injection, schedule: Q04DX003 (ip), vehicle: saline
  T/C: 126 % of control

## c1ccc2c(c1)Sc1ccccc1N2CCCN1CCCC1
T/C endpoint: median survival time, dose: 50.0 mg/kg/injection, schedule: Q01DX009 (ip), vehicle: saline
  T/C: 136 % of control

## COC(=O)Cc1c[nH]c(=O)[nH]c1=O
T/C endpoint: median survival time, dose: 400.0 mg/kg/injection, schedule: Q01DX009 (ip), vehicle: water
  survivor count: 3 of 6
[6]
  survivor count: 4 of 6

## c1ccc2c(c1)cc1c3nncn3ncn21
[7]
  survivor count: 4 of 6

## O=S(=O)(CCBr)CCBr
[7]
  survivor count: 5 of 6
[4]
  survivor count: 0 of 6

## CNC(=N)c1ccc(NC(=N)c2ccc(NC(=N)c3ccc(NC(=N)c4ccc(C(=N)NC)cc4)cc3)cc2)cc1
T/C endpoint: median survival time, dose: 9.0 mg/kg/injection, schedule: Q01DX009 (ip), vehicle: saline with Tween-80
  T/C: 129 % of control
T/C endpoint: median survival time, dose: 40.0 mg/kg/injection, schedule: Q01DX009 (ip), vehicle: saline with Tween-80
  survivor count: 0 of 6
T/C endpoint: median survival time, dose: 40.0 mg/kg/injection, schedule: Q04DX003 (ip), vehicle: saline with Tween-80
  T/C: 137 % of control [5 of 6 alive]
T/C endpoint: median survival time, dose: 60.0 mg/kg/injection, schedule: Q04DX003 (ip), vehicle: saline with Tween-80
  survivor count: 1 of 6
T/C endpoint: median survival time, dose: 80.0 mg/kg/injection, schedule: Q01DX009 (ip), vehicle: saline with Tween-80
  survivor count: 0 of 6

## CC(C)=CCC/C(C)=C/CNc1ncnc2nc[nH]c12
[1]
  T/C: 125 % of control
[2]
  T/C: 128 % of control [5 of 6 alive]
[3]
  T/C: 130 % of control

## OC(C1CO1)C(O)C1CO1 (configuration not stated)
T/C endpoint: median survival time, dose: 4.0 mg/kg/injection, schedule: Q01DX009 (ip), vehicle: saline
  survivor count: 5 of 6
T/C endpoint: median survival time, dose: 5.9 mg/kg/injection, schedule: Q01DX009 (ip), vehicle: saline
  survivor count: 6 of 6
T/C endpoint: median survival time, dose: 8.0 mg/kg/injection, schedule: Q01DX009 (ip), vehicle: saline
  survivor count: 3 of 6
T/C endpoint: median survival time, dose: 9.0 mg/kg/injection, schedule: Q01DX009 (ip), vehicle: saline
  survivor count: 5 of 6
T/C endpoint: median survival time, dose: 13.0 mg/kg/injection, schedule: Q01DX009 (ip), vehicle: saline
  survivor count: 6 of 6

## C=C(C)C(=O)OCC1CO1 (configuration not stated)
[8]
  survivor count: 0 of 6

## NC(C/[N+]([O-])=N/O)C(=O)O (configuration not stated)
T/C endpoint: median survival time, dose: 31.3 mg/kg/injection, schedule: Q04DX003 (ip), vehicle: water
  T/C: 136 % of control
T/C endpoint: median survival time, dose: 50.0 mg/kg/injection, schedule: Q01DX010 (ip), vehicle: saline
  T/C: 127 % of control [5 of 6 alive]
T/C endpoint: median survival time, dose: 62.5 mg/kg/injection, schedule: Q04DX003 (ip), vehicle: saline
  T/C: 127 % of control
T/C endpoint: median survival time, dose: 62.5 mg/kg/injection, schedule: Q04DX003 (ip), vehicle: water
  T/C: 136 % of control
T/C endpoint: median survival time, dose: 100.0 mg/kg/injection, schedule: Q01DX010 (ip), vehicle: saline
  T/C: 138 % of control
T/C endpoint: median survival time, dose: 125.0 mg/kg/injection, schedule: Q04DX003 (ip), vehicle: saline
  T/C: 140 % of control
T/C endpoint: median survival time, dose: 200.0 mg/kg/injection, schedule: Q01DX010 (ip), vehicle: other
  survivor count: 6 of 6
[8]
  survivor count: 6 of 6
T/C endpoint: median survival time, dose: 800.0 mg/kg/injection, schedule: Q04DX003 (ip), vehicle: sodium bicarbonate
  survivor count: 8 of 8

## C=C1C(=O)OC2CC(C)C3C4OC4C(O)C3(C)C(O)C12 (configuration not stated)
T/C endpoint: median survival time, dose: 37.5 mg/kg/injection, schedule: Q01DX009 (ip), vehicle: saline
  T/C: 134 % of control

## NCC(O)CSc1ccc(Cl)c(Cl)c1 (configuration not stated)
[5]
  survivor count: 3 of 6

## O=[N+]([O-])c1ccc2scc3c4ccccc4nc-3c2c1
T/C endpoint: median survival time, dose: 12.5 mg/kg/injection, schedule: Q01DX009 (ip), vehicle: saline
  survivor count: 5 of 6
T/C endpoint: median survival time, dose: 25.0 mg/kg/injection, schedule: Q01DX009 (ip), vehicle: saline
  survivor count: 6 of 6

## OCC(CO)(CO)CBr
T/C endpoint: median survival time, dose: 264.0 mg/kg/injection, schedule: Q01DX009 (ip), vehicle: saline
  survivor count: 6 of 6
T/C endpoint: median survival time, dose: 400.0 mg/kg/injection, schedule: Q01DX009 (ip), vehicle: saline
  T/C: 125 % of control

## c1ccc([P+](C[P+](c2ccccc2)(c2ccccc2)c2ccccc2)(c2ccccc2)c2ccccc2)cc1
T/C endpoint: median survival time, dose: 3.5 mg/kg/injection, schedule: Q01DX009 (ip), vehicle: Klucel (hydroxypropylcellulose) (HPC)
  survivor count: 4 of 6
T/C endpoint: median survival time, dose: 5.2 mg/kg/injection, schedule: Q01DX009 (ip), vehicle: Klucel (hydroxypropylcellulose) (HPC)
  survivor count: 0 of 6
T/C endpoint: median survival time, dose: 9.9 mg/kg/injection, schedule: Q04DX003 (ip), vehicle: Klucel (hydroxypropylcellulose) (HPC)
  survivor count: 5 of 6
T/C endpoint: median survival time, dose: 15.0 mg/kg/injection, schedule: Q04DX003 (ip), vehicle: Klucel (hydroxypropylcellulose) (HPC)
  survivor count: 4 of 6
T/C endpoint: median survival time, dose: 22.0 mg/kg/injection, schedule: Q04DX003 (ip), vehicle: Klucel (hydroxypropylcellulose) (HPC)
  survivor count: 1 of 6

## CN(C)Cc1ccc(C(C)(C)C)cc1
T/C endpoint: mean survival time, dose: 50.0 mg/kg/injection, schedule: Q01DX009 (ip), vehicle: water
  survivor count: 5 of 6
T/C endpoint: median survival time, dose: 200.0 mg/kg/injection, schedule: Q04DX003 (ip), vehicle: water
  survivor count: 0 of 6
[6]
  survivor count: 0 of 6

## O=C(/C=C/c1ccncc1)c1ccccc1
T/C endpoint: median survival time, dose: 400.0 mg/kg/injection, schedule: Q01DX001 (ip), vehicle: saline with Tween-80
  survivor count: 2 of 6

## COc1cccc2c1C(=O)CC2
T/C endpoint: median survival time, dose: 300.0 mg/kg/injection, schedule: Q04DX003 (ip), vehicle: Klucel (hydroxypropylcellulose) (HPC)
  survivor count: 3 of 6
